# According to patent US9481646B2, “Low calcemic, highly antiproliferative, analogs of calcitriol” (The Johns Hopkins University, priority 2007, dated 2016):
# Some results were stated once for a whole list of compounds, not compound by compound.
# Experiment: in vivo calciuric activity, calcium levels in rat urine
# Details: rat urine calcium (FIG. 1)
row,Compound,times less calciuric than A
1,C=C1/C(=C\C=C2/CCC[C@]3(C)[C@@H]([C@H](C)COCC(=C)C(C)(C)C)CC[C@@H]23)C[C@@H](O)C[C@@H]1O [Analog 1a],at least 50 times
2,C=C1/C(=C\C=C2/CCC[C@]3(C)[C@@H]([C@H](C)COCC4=CCCCC4(C)C)CC[C@@H]23)C[C@@H](O)C[C@@H]1O [Analog 1d],at least 50 times
3,C=C1/C(=C\C=C2/CCC[C@]3(C)[C@@H]([C@H](C)COCC#CC(C)(C)C)CC[C@@H]23)C[C@@H](O)C[C@@H]1O [Analog 1f],at least 50 times
